A short description of this assay: qHTS Assay for Lipid Storage Modulators in Drosophila S3 Cells.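 For cell number change: cells counted by Cell Tracker Red CMTPX staining in the red channel.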 The following applies: BODIPY lipid droplet fluorescence, 18-24 h; for cell number change: measured here: cell count max response, cells fed with added oleic acid. In a few lines:
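Laser-scanning cytometry quantifies lipid droplet accumulation (500–530 nm total intensity; droplet/cell object ratio) in oleic acid-fed (400 uM added) Drosophila S3 cells treated with a concentration series. 20 uM Triacsin C defined 100% inhibition.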
On the technique in general: In qHTS, concentration-response curves come from the screen itself.

Where [1] appears, read: measured here: cell number channel AC50, cells fed with added oleic acid.
Where [2] appears, read: measured here: lipid fluorescence (Fed channel) AC50, cells fed with added oleic acid.

The other results are listed elsewhere or left out. Shown are side measurements of this screen, not its main read-out; they come without a call. Most of these compounds were active or inconclusive in the main read-out, so they are no random draw. Potencies come from curve fits of mixed quality, noted in brackets.

The AC50 is the concentration at which the activity in the assay is half-maximal. A lower AC50 goes with greater potency.

As to `Cc1cc(C)n(C(=O)CN2C(=O)c3ccccc3C2=O)n1`, the AC50 under setting [1] is 0.259 µM [rising, partial curve] and the AC50 under setting [2] is 0.517 µM [rising, partial curve].

`COc1cccc(-c2cc(C(=O)Nc3ccccc3SC)no2)c1`: the cell number change is 17.5%. On to `COc1ccc(Nc2nc(N)c([N+](=O)[O-])c(NC3CCCCC3)n2)cc1`, for which the cell number change was -47.8%. Moreover, the concentration at half-maximal activity (AC50) under setting [1] is 29.1 µM [falling, single point]. In addition, the concentration at half-maximal activity (AC50) under setting [2] was 32.6 µM [falling, single point].

`O=C(NC(=S)Nc1ccc(C(F)(F)F)cc1)c1csnn1`: the cell number change was -17%.

`Cc1ccc(-c2csc(NC(=O)/C=C/c3cccs3)n2)cc1C`: the cell number change was -18.1%. The concentration at half-maximal activity (AC50) under setting [2] was 20.6 µM [falling, single point]. For `Cc1cccc(-c2n[nH]c(=S)n2/N=C/c2ccco2)c1`, the cell number change was -9.15%. Besides, under setting [2], the AC50 is 0.184 µM [falling, full curve, poor fit]. In the case of `CC(=O)Nc1ccc(NC(=O)CCn2c(=O)oc3ccccc32)cc1`, the cell number change worked out at 8.97%. Besides, under setting [2], the AC50 was 11.6 µM [rising, partial curve].

On to `Clc1nnc(N/N=C/c2ccccc2)c2ccccc12`, for which the AC50 under setting [1] is 5.8 µM [rising, single point]. As for `O=S(=O)(c1ccccc1)N1CCC(Oc2ccc(-n3cnnn3)cc2)CC1`, the cell number change turned out to be 21.5%. On to `O=C(CSc1nc2ccccc2o1)N/N=C/c1ccco1`, for which the cell number change was found to be 13%. Also, the concentration at half-maximal activity (AC50) under setting [2] is 0.58 µM [rising, single point]. Regarding `O=C1NC(Cc2c[nH]c3ccccc23)C(=O)N1CCOc1ccc(F)cc1` (stereo not drawn), the AC50 is 6.51 µM [rising, single point] under setting [1] and 6.51 µM [rising, single point] under setting [2].

`CC1CC(C)CN(c2ncc3c(n2)CC(c2ccccc2)CC3=O)C1` (stereo not drawn): the cell number change is -0.881%. Further, the concentration at half-maximal activity (AC50) under setting [1] was 3.26 µM [falling, partial curve]. In addition, under setting [2], the half-maximal activity concentration (AC50) was 2.31 µM [falling, partial curve, poor fit]. Turning to `Cc1c(Cl)ccc2sc(NC(=O)C3CC3)nc12`, the cell number change was 6.34%. Further, under setting [2], the concentration at half-maximal activity (AC50) was 29.1 µM [rising, single point]. On to `c1ccc(Nc2ccccn2)nc1`, for which the cell number change was -4.76%. Also, the half-maximal activity concentration (AC50) under setting [2] is 0.731 µM [falling, full curve, poor fit]. Regarding `CC(C)CC(=O)N1CCC(O)(CS(=O)(=O)Cc2ccccc2)CC1`, the cell number change was 24.7%. Also, under setting [2], the AC50 is 3.66 µM [falling, single point].

For `C=C1N(C)c2cc([N+](=O)[O-])c(N)cc2C1(C)C`, the cell number change is 65.7%. Under setting [2], the half-maximal activity concentration (AC50) is 29.1 µM [rising, partial curve, poor fit].

As for `CN(CCOc1ccccc1)CC(O)COc1ccccc1` (stereo not drawn), the cell number change turned out to be 24.8%. The half-maximal activity concentration (AC50) under setting [1] was 0.411 µM [rising, full curve, poor fit]. With `Cc1cccc(NC(=O)c2ccc(Cl)c(NC(=O)c3ccncc3)c2)c1C`, the cell number change was 8.24%. For the same molecule, the AC50 under setting [2] was 0.00517 µM [rising, full curve, poor fit]. For `Cn1c(-c2cccc(Br)c2)cnc1NCc1cccnc1`, under setting [1], the AC50 was 0.58 µM [rising, single point]. For the molecule `COC(=O)Cc1[nH]nc2c1C(C1C=CCCC1)C(C#N)=C(N)O2` (stereo not drawn), the cell number change came to 77.7%. Also, the AC50 under setting [1] was 1.84 µM [rising, full curve, poor fit]. In the case of `CC(=O)NC(=O)c1cnn(-c2ccccc2)c1N`, the cell number change is -9.85%. Besides, the AC50 under setting [2] is 25.9 µM [falling, single point]. Regarding `COc1ccc(CNC(=O)C(c2ccco2)N(C(=O)CNS(=O)(=O)c2ccccc2)c2ccccc2C)cc1` (stereo not drawn), the cell number change was 18%. For the same molecule, under setting [2], the AC50 is 8.2 µM [rising, partial curve]. With `COc1ccc(C(=O)Nc2ccc(/C(C)=N/NC(=O)c3ccccc3O)cc2)cc1OC`, the cell number change turned out to be 114%. Moreover, under setting [1], the AC50 was 6.51 µM [falling, partial curve]. Under setting [2], the AC50 is 6.51 µM [falling, partial curve]. For `C=CCOC(=O)/C(=C/c1ccco1)NC(=O)/C=C/c1ccccc1`, the cell number change is 178%. Besides, the AC50 under setting [1] is 8.2 µM [rising, partial curve]. For the same molecule, the AC50 under setting [2] is 5.8 µM [rising, full curve]. For the molecule `Cc1ccc(NC(=O)COC(=O)CN2C(=O)NC3(CCCC3)C2=O)cc1F`, the cell number change was 0.493%. For the same molecule, the AC50 under setting [2] was 0.164 µM [rising, partial curve, poor fit].

For `Cc1ccc(S(=O)(=O)c2nc(-c3ccco3)oc2SC(C)C)cc1`, the cell number change turned out to be 1.21%. Further, the AC50 under setting [2] is 32.6 µM [rising, single point]. For the molecule `COC(=O)COc1cccc(NS(=O)(=O)c2ccc(NC(C)=O)cc2)c1`, the cell number change is -69.1%. In addition, the AC50 under setting [1] was 18.4 µM [falling, partial curve]. For the same molecule, under setting [2], the concentration at half-maximal activity (AC50) is 16.4 µM [falling, partial curve]. `CCCCCN1C(=O)Cn2c(nc3ccccc3c2=O)C1C` (stereo not drawn): the cell number change was determined as 81.2%. As for `O=C(CSc1nc(=O)[nH]c2c1CCCC2)Nc1ccc(F)cc1F`, the cell number change is -16.6%. Also, the AC50 under setting [2] was 29.1 µM [falling, single point]. For `CC1(C)Cc2c(c(-c3ccccc3)[nH]c(=O)c2C#N)CS1`, the cell number change was -0.86%. Under setting [2], the AC50 is 29.1 µM [falling, single point].

Turning to `C#CCNC(=O)C1=C[C@H](c2ccc(Br)cc2)C[C@H](OCCCCO)O1`, the cell number change came to 2.16%. In addition, the AC50 under setting [2] was 6.51 µM [rising, partial curve, poor fit]. Take `COc1ccc(OC)c(NC(=O)CN2CCN(C(=O)c3ccco3)CC2)c1`: the cell number change came out at 7.3%. For the same molecule, the half-maximal activity concentration (AC50) under setting [1] is 6.51 µM [rising, single point].

For `CNC(=O)c1[nH]cnc1C(=O)N[C@@H](CC(C)C)C(=O)OCc1ccccc1`, the cell number change is -37.1%. Further, the concentration at half-maximal activity (AC50) under setting [1] is 29.1 µM [falling, single point]. On to `COc1cc(CNn2nnnc2N)ccc1OCC(=O)NC(C)(C)C`, for which the cell number change was 0.519%. Further, the AC50 under setting [1] is 0.731 µM [falling, full curve, poor fit]. For the same molecule, under setting [2], the AC50 is 0.651 µM [falling, single point]. For `CCOC(=O)c1cccc(NC(=O)CCS(=O)(=O)c2ccc(Br)s2)c1`, the cell number change was 134%. Also, the concentration at half-maximal activity (AC50) under setting [1] was 9.2 µM [rising, partial curve]. For the same molecule, under setting [2], the concentration at half-maximal activity (AC50) was 16.4 µM [rising, partial curve].

As to `CCc1c(C#N)c(SCCC(=O)Nc2ccc(F)cc2)nc2c1C(=O)CC(C)(C)C2`, the cell number change is -3.25%. For `O=C(NC1CC2CCC(C1)N2Cc1ccco1)c1ccccc1` (stereo not drawn), the cell number change is -25.3%. Under setting [2], the AC50 is 9.2 µM [falling, partial curve, poor fit]. With `O=C(CSc1nc2ccc(NC(=O)C3CCCCC3)cc2s1)NCC1CCCO1` (stereo not drawn), the cell number change was determined as 4.08%. The AC50 under setting [2] was 20.6 µM [rising, single point]. As for `CC(=O)N1CCc2c(sc(NC(=O)CCS(=O)(=O)c3ccc(C)cc3)c2C(N)=O)C1`, the cell number change was 8.43%. Regarding `OCc1nc2ccccc2n1C/C=C/c1ccccc1`, the cell number change is -36.3%. For the same molecule, under setting [1], the concentration at half-maximal activity (AC50) was 29.1 µM [falling, single point]. On to `CCOCCCNC(=O)c1cc(Sc2nnc(C)s2)nc2ccccc12`, for which the cell number change was 14%. Further, the AC50 under setting [2] is 0.291 µM [rising, full curve, poor fit].

For `Cc1onc(-c2ccccc2)c1C(=O)OCC(=O)Nc1ccc2c(c1)OCO2`, the cell number change was -13.8%. In addition, under setting [2], the concentration at half-maximal activity (AC50) was 2.31 µM [rising, single point]. On to `CCc1cc(=O)oc2cc(C)cc(OCC(=O)NCc3ccccn3)c12`, for which the cell number change is -6.23%. The AC50 under setting [1] is 0.00517 µM [falling, full curve, poor fit]. With `COc1ccc(OC)c(C2NC(=O)N(C)C(C)=C2C(=O)OCc2ccccc2)c1` (stereo not drawn), the cell number change turned out to be 11.4%. In addition, the AC50 under setting [2] is 0.259 µM [falling, full curve, poor fit]. Consider `O=C(NC(CC(=O)N1CCN(c2ccccc2)CC1)c1ccccc1)c1ccccc1Cl` (stereo not drawn), for which the concentration at half-maximal activity (AC50) under setting [2] is 3.26 µM [rising, single point]. Take `CCNC(=O)c1cc(Br)ccc1Cl`: the cell number change was -76%. Also, under setting [1], the AC50 is 23.1 µM [falling, partial curve, poor fit]. As for `O=C(CCl)N(Cc1cc(=O)[nH]c2ccccc12)c1ccccc1`, the cell number change was determined as 9.72%. Under setting [2], the AC50 was 0.58 µM [rising, single point]. As for `Cc1ccc(-c2[nH]ncc2/C=N/n2c(COc3ccccc3C)nc3ccccc3c2=O)cc1`, the cell number change is -68.4%. Further, under setting [1], the AC50 was 29.1 µM [falling, single point]. On to `CCOc1ccc(S(=O)(=O)N2CCC(C(=O)NC3CC3)CC2)cc1C`, for which the cell number change stood at 25.2%. Also, the AC50 under setting [2] is 0.206 µM [falling, single point]. Regarding `CC1(C)C(C(=O)O)N2C(=O)C(NC(=O)Cc3ccccc3)C2S1=O` (stereo not drawn), the cell number change stood at 27.7%. Besides, the AC50 under setting [2] was 9.2 µM [falling, single point]. With `COc1ccc(OC)c(S(=O)(=O)N2CCCC(C(=O)NCc3ccco3)C2)c1` (stereo not drawn), the cell number change was found to be 16%. Under setting [2], the concentration at half-maximal activity (AC50) is 6.51 µM [falling, single point]. In the case of `O=C(CO/N=C\c1ccccc1)Nc1ccccc1C(=O)N1CCOCC1`, the cell number change was -17.4%. Under setting [2], the AC50 is 14.6 µM [falling, partial curve]. On to `CCOc1ccc(N(CC(=O)Nc2ccc(C)c(Cl)c2)S(C)(=O)=O)cc1`, for which the cell number change came to 3.88%. As to `CC1Sc2ccc(S(=O)(=O)N3CCC(C(=O)NCc4ccccc4)CC3)cc2NC1=O` (stereo not drawn), the cell number change was 12.5%. The AC50 under setting [2] was 29.1 µM [falling, single point]. On to `CC(C)Cc1nnc(NC(=O)C2CC(=O)N(Cc3ccccc3)C2)s1` (stereo not drawn), for which the cell number change was -1.74%. For the same molecule, the concentration at half-maximal activity (AC50) under setting [2] was 1.03 µM [rising, full curve]. As to `N#Cc1nc(COc2ccc(F)cc2)oc1NCCCn1ccnc1`, the cell number change worked out at 8.26%. Also, under setting [1], the half-maximal activity concentration (AC50) was 0.291 µM [rising, full curve, poor fit]. Also, the AC50 under setting [2] was 0.58 µM [rising, full curve]. For the molecule `Oc1[nH]c2ccccc2c1OCc1ccncc1`, the cell number change is -33.5%. Besides, the half-maximal activity concentration (AC50) under setting [1] is 29.1 µM [falling, single point]. Further, under setting [2], the AC50 is 1.16 µM [falling, full curve]. Turning to `O=C(O)c1ccnc(SCC(=O)c2ccccc2)c1`, the half-maximal activity concentration (AC50) under setting [2] is 0.206 µM [falling, full curve, poor fit]. As for `CCOC(=O)CSc1c(-c2ccccc2)c2cc(Cl)ccc2[nH]c1=O`, the cell number change was -6.79%. As to `O=C(N/N=C/c1cccnc1)/C(=C\c1cccs1)NC(=O)c1ccccc1`, the cell number change worked out at 132%. Also, under setting [1], the AC50 is 29.1 µM [rising, single point]. For the same molecule, under setting [2], the AC50 was 16.4 µM [rising, single point].

The record behind these values is PubChem BioAssay AID2685 (National Center for Advancing Translational Sciences (NCATS), 2010).
